Data as given in PubChem BioAssay AID504793 (Drosophila RNAi Screening Center, 2011).

Aim: 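Knock-downs allowing continued mitosis even though DNA is damaged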 (primary screen)
Cells: Drosophila S2R+ cells
Knock-down reagent: long dsRNA against Drosophila genes, about 0.25 µg dsRNA per well
Duration: 4 days of dsRNA, then 4 hours of drug before read-out
Conditions: doxorubicin 0.5 µM for 4 hours to cause double-strand breaks, in cells also given a low, harmless dose of dsRNA against nbs to sensitise the assay
Measurement: 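Mitotic index as the number of phospho-histone H3-positive cells in each well following doxorubicin, given as raw counts without normalisation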
Direction: mitotic cells: higher = more cells in mitosis, weaker G2 arrest
Call rule: 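a call needs confirmation in secondary tests, with other dsRNAs and a check of mitotic timing without damage, not just a high primary count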
Calls: active = confirmed in follow-up tests; inactive = not confirmed
In all, the deposit lists about 23,000 reagents; below is an unselected part of those with a known target gene and a result. Of all reagents, 62 (0.27%) were called active. 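Calls come from follow-up tests whose scores are not deposited, so confirmed genes may have low counts here; counts are not normalised per plate.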 The raw values are shown without normalisation. Names joined by + are all predicted targets of the reagent.

Target gene	amplicon	mitotic cells, replicate 1	mitotic cells, replicate 2	activity call
ft (fat)	DRSC00819	5		inactive
Trax (Translin associated factor X)	DRSC15709	7		inactive
CG2750	DRSC19867	5	8	inactive
dsh (dishevelled)	DRSC19803	18		inactive
dsh (dishevelled)	DRSC39144	8		inactive
Ran	DRSC20364	5		inactive
Ran	DRSC28160	3		inactive
CG15534	DRSC15070	11		inactive
CG15534	DRSC26433	4		inactive
Fancd2	DRSC15208	14		inactive
Fancd2	DRSC22763	28		inactive
Adsl (Adenylosuccinate lyase)	DRSC15500	14		inactive
CG31551	DRSC12159	11		inactive
CG31551	DRSC22403	5		inactive
CG31551	DRSC27808	6		inactive
CG34155	DRSC13991	4		inactive
Kr-h1 (Kruppel homolog 1)	DRSC00908	3		inactive
Kr-h1 (Kruppel homolog 1)	DRSC03355	11		inactive
Kr-h1 (Kruppel homolog 1)	DRSC23629	10		inactive
CG9215	DRSC20171	13		inactive
Arpc1 (Actin-related protein 2/3 complex, subunit 1)	DRSC03438	3		inactive
Arpc1 (Actin-related protein 2/3 complex, subunit 1)	DRSC29641	3		inactive
Mef2 (Myocyte enhancer factor 2)	DRSC07468	7		inactive
Mef2 (Myocyte enhancer factor 2)	DRSC25554	6		inactive
CG31988	DRSC22491	5		inactive
CG9518	DRSC20194	10		inactive
CG9518	DRSC27096	5		inactive
CG9861	DRSC04576	1		inactive
CG9861	DRSC28876	8		inactive
SmydA-2 (SET and MYND domain containing, arthropod-specific, member 2)	DRSC10296	4		inactive
CG31867	DRSC03338	4		inactive
CG33258	DRSC09415	4		inactive
CG33258	DRSC23590	8		inactive
CG43737	DRSC19609	6		inactive
CG15385	DRSC00399	5		inactive
CG34382	DRSC10166	8		inactive
CG34382	DRSC10167	2		inactive
Ass + CG31286	DRSC12493	7		inactive
ast (asteroid)	DRSC00803	5		inactive
ast (asteroid)	DRSC27973	10		inactive
Rsph4a (Radial spoke head protein 4a)	DRSC04338	7		inactive
Rsph4a (Radial spoke head protein 4a)	DRSC28287	8		inactive
CG3702	DRSC00628	4		inactive
CG4408	DRSC15574	4		inactive
AOX1 (Aldehyde oxidase 1)	DRSC15339	8		inactive
AOX1 (Aldehyde oxidase 1)	DRSC29234	6		inactive
CG8461	DRSC16424	8		inactive
Decay (Death executioner caspase related to Apopain/Yama)	DRSC16930	4		inactive
CG6184	DRSC15986	10		inactive
Rok (Rho kinase)	DRSC20277	8		inactive
Rok (Rho kinase)	DRSC23348	22		inactive
CanB (Calcineurin B)	DRSC18449	14		inactive
CanB (Calcineurin B)	DRSC29220	6		inactive
vari (varicose)	DRSC03202	2		inactive
Obp47a (Odorant-binding protein 47a)	DRSC06255	4		inactive
Obp47a (Odorant-binding protein 47a)	DRSC26247	5		inactive
CG14893	DRSC15015	5		inactive
MtnC (Metallothionein C)	DRSC22879	9		inactive
whe (what else)	DRSC20537	6		inactive
whe (what else)	DRSC26236	1		inactive
CG15406	DRSC00420	3		inactive
CG15406	DRSC28108	7		inactive
CG4053	DRSC15538	13		inactive
CG4053	DRSC29364	2		inactive
Mitf	DRSC17212	10		inactive
Mitf	DRSC21056	18		inactive
CG7536	DRSC20050	9		inactive
Gr85a (Gustatory receptor 85a)	DRSC12760	8		inactive
Dredd (Death related ced-3/Nedd2-like caspase)	DRSC18461	6		inactive
gcm (glial cells missing)	DRSC03536	10	8	inactive
gdl-ORF39 + gdl	DRSC11350	7		inactive
CG13062	DRSC09945	7		inactive
CG13062	DRSC28840	2		inactive
CG44098	DRSC12214	12		inactive
CG44098	DRSC12327	2		inactive
CG44098	DRSC23643	3		inactive
CG44098	DRSC24166	5		inactive

11 entries from above, ordered by “mitotic cells, replicate 1”, low to high.
Target gene	amplicon	mitotic cells, replicate 1	mitotic cells, replicate 2	activity call
CG9861	DRSC04576	1		inactive
SmydA-2 (SET and MYND domain containing, arthropod-specific, member 2)	DRSC10296	4		inactive
CG31867	DRSC03338	4		inactive
CG33258	DRSC09415	4		inactive
CG31988	DRSC22491	5		inactive
CG9518	DRSC27096	5		inactive
CG15385	DRSC00399	5		inactive
CG43737	DRSC19609	6		inactive
CG9861	DRSC28876	8		inactive
CG33258	DRSC23590	8		inactive
CG9518	DRSC20194	10		inactive
